The exact form of at least one protein or probe is not confirmed. For part of these data: The comparison behind a weaker result is the experiment's own reference, which may not be listed here.

Protein sequences, listed by entry. Tags and fused reporters are not part of them.
UniProt Q9UKV8, whole entry: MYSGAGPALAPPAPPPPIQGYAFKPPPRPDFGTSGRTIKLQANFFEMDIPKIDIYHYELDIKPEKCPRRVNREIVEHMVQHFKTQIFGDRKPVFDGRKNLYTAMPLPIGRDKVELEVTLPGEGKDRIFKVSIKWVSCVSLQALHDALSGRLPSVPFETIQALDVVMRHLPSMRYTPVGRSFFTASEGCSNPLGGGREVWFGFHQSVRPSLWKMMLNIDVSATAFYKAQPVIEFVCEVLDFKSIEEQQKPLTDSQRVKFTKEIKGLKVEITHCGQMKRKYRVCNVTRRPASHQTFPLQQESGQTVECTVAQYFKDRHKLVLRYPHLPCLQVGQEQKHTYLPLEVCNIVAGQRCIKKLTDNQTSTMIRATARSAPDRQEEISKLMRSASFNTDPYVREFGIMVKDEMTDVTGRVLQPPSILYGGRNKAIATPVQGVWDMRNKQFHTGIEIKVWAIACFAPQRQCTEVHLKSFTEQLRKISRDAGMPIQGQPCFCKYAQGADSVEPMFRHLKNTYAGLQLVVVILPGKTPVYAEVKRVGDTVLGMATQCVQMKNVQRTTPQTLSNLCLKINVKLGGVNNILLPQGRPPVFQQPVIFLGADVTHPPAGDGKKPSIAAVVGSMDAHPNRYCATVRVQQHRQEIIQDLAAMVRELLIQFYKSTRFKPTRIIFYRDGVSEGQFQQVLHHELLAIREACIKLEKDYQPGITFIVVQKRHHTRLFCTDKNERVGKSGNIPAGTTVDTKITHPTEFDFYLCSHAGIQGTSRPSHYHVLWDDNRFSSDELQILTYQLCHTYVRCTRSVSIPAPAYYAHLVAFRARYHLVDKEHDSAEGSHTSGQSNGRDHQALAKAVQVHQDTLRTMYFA

What all share (assay): stopped-flow kinetics
The target in data set [1] is hAgo2-PAZ9 (Homo sapiens) (UniProt Q9UKV8). The settings on record: no dsRBP, only two phases, 3'-end binding to PAZ not detected; 3' dTdT on both strands (DNA); T at position 14 of guide carries label; dsRBP-siRNA: 20 mM Tris pH 7.5, 50 mM NaCl, 1 mM EDTA, 25 C; hAgo2 stopped flow: 10 mM Tris pH 7.5, 100 mM KCl, 0.5 mM MgCl2, 25 C; recombinant protein; protein details: GST; label: FAM at position 14 of guide.

The test system of data set [2] is hAgo2-PAZ9 + hPACT (native purification). The settings on record: hPACT restores three-step binding; 3' dTdT on both strands (DNA); T at position 14 of guide carries label; dsRBP-siRNA: 20 mM Tris pH 7.5, 50 mM NaCl, 1 mM EDTA, 25 C; hAgo2 stopped flow: 10 mM Tris pH 7.5, 100 mM KCl, 0.5 mM MgCl2, 25 C; recombinant protein; protein details: GST,His (pET41b); label: FAM at position 14 of guide.

The subject of data set [3] is hAgo2-PAZ9 + hTRBP (native purification). The conditions noted are these: hTRBP restores three-step binding; 3' dTdT on both strands (DNA); T at position 14 of guide carries label; dsRBP-siRNA: 20 mM Tris pH 7.5, 50 mM NaCl, 1 mM EDTA, 25 C; hAgo2 stopped flow: 10 mM Tris pH 7.5, 100 mM KCl, 0.5 mM MgCl2, 25 C; recombinant protein; protein details: GST,His (pET41b); label: FAM at position 14 of guide.

Take “UAGAGGUACGUGCTGAGGCTT / GCCUCAGCACGUACCUCUATT [as2b-FAM/s2b siRNA]”: the binding result in data set [1] is “binds more weakly”; in data set [2] it was “binds”; in data set [3], “binds”.
